The text below walks through data of patent US20210130491A1.

Results are given in words; binding and its absence hold for the method and conditions named. Some entries that bind do so weakly or less than the wild type. Tags and fused reporters may be left off the sequences shown.

The target in the assay is T1, His-MRS (human) (UniProt P56192).
T1 sequence: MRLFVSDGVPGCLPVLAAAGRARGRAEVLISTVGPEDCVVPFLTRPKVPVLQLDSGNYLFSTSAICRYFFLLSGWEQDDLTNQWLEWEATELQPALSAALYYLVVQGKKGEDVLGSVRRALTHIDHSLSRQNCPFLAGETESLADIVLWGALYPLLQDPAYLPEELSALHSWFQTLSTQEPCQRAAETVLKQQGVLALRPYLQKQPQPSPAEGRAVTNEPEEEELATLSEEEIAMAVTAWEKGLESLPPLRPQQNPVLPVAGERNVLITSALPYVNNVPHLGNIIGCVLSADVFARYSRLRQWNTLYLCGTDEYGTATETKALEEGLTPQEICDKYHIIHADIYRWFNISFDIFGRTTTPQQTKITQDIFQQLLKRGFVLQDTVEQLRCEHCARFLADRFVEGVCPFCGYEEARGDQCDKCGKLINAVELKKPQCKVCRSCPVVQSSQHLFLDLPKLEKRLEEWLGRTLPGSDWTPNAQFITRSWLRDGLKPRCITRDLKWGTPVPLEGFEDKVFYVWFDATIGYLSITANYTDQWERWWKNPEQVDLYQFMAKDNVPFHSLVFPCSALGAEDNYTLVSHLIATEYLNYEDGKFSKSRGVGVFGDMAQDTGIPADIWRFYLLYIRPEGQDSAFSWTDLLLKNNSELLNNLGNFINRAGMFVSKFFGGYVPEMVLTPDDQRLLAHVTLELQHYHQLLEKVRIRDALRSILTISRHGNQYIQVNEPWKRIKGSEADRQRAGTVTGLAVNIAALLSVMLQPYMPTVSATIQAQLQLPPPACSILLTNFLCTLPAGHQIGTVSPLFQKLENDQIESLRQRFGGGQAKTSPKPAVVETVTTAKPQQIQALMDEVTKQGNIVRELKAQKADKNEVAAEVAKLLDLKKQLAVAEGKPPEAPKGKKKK
Kind of assay: ELISA, His-MRS coated at 1 ug/ml, antibody 500 ng/ml.

B1: 1E8 antibody (1E8 IgG) (antibody, V domains shown)
VH: DVKLQESGPGLVNPSQSLSLTCTVTGYSITSDYAWNWIRQFPGNKLEWMGYISYSGRTSYKSSLKSRISITRDTSKNQFFLELNSVTTEDTATYYCARDYGNFVGYFDVWGAGTTVTVSS
VL: DIVMTQSPSSLAVSVGEKVTMSCKSSQSLLYSSNQKNYLAWYQQKPGQSPKLLIYWASTRESGVPDRFTGSGSGTEFTLTISSVKAEDLAVYYCQQYYSYPTFGGGTKLEIKA
With B1, the binding result is on record as “binds”.

B2: 8A12 antibody (8A12 IgG) (antibody, V domains shown)
VH: DVKLQESGPGLVKPSQSLSLTCTVTGYSITSEYAWTWIRQFPGNKLEWMGYINYNGNTNLNPSLKSRISIIRDTSKNQFFLQLNSVTTEDTATYYCARSLWPRGWFAYWGQGTLVTVSA
VL: DIQMTQSPSSMYASLGERVTITCKASQDINSYLSWFQQKPGKSPKTLMYRANRLVDGVPSRFSGSGSGQDYSLTISSLEYEDMGIYYCLQYDEFPRTFGGGTKLEIKA
For the molecule B2, the binding entry is “binds”.
